Measurements: patent US20030119002A1
These are yes or no findings as the source states them, for the method shown. Some entries that bind do so weakly or less than the wild type. For some assays here: Tags and fused reporters may be left off the sequences shown.

By UniProt entry, the sequences of proteins in these tests, tags left out. Where a name states a change or a piece, a line headed by the entry shows the natural chain unless it says otherwise. Chains listed by the source or under a name are the forms on record and can include a tag or linker.
VEGF-GAD (Vascular Endothelial Growth Factor fused to the GAL4 activation domain, in pACTSfiI) (P15692, form named): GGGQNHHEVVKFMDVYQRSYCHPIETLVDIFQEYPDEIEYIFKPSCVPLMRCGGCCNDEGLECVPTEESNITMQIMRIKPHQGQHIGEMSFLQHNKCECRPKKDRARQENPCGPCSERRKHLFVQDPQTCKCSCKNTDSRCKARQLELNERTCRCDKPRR
UniProt P04386: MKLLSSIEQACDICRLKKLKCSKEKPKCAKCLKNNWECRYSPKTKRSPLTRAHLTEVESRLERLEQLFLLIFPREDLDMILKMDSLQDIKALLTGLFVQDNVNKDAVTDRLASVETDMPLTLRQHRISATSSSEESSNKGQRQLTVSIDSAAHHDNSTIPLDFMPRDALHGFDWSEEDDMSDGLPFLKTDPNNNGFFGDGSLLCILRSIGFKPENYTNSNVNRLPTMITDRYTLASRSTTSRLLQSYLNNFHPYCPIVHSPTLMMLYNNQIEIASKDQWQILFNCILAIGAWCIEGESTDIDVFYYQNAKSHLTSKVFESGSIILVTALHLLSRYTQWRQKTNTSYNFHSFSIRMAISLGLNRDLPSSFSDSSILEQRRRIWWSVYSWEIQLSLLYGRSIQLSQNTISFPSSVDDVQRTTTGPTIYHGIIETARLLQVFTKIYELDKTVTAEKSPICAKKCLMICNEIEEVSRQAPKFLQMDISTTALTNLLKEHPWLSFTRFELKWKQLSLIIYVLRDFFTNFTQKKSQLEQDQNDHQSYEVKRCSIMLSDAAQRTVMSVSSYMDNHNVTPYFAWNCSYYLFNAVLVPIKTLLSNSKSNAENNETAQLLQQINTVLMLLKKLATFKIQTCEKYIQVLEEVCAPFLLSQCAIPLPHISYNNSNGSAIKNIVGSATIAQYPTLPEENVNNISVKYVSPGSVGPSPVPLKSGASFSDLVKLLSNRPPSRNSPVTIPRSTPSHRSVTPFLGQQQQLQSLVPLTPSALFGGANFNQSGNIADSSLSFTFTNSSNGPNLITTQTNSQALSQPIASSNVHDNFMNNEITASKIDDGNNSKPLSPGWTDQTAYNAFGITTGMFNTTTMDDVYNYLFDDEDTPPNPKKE

What was measured:
[1] = biological target: T1, SNF4-GAD (SNF4 fused to the GAL4 activation domain, plasmid pSE1111) (Saccharomyces cerevisiae) (UniProt P12904); experiment: yeast two-hybrid mating assay, HIS3 reporter with 3-AT
T1 sequence (looked up): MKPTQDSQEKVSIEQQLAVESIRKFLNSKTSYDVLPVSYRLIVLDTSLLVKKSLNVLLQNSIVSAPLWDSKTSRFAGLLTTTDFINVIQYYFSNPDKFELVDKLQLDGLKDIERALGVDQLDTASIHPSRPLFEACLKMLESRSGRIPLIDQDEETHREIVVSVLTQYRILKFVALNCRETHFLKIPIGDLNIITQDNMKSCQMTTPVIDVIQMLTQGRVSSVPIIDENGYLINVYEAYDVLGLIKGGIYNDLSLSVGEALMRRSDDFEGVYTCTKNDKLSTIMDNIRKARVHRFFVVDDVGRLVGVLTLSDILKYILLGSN

[2] = biological target: VEGF-GAD (Vascular Endothelial Growth Factor fused to the GAL4 activation domain, in pACTSfiI) (Saccharomyces cerevisiae) (UniProt P15692); experiment: yeast two-hybrid mating assay, URA3 and HIS3 reporters with 3-AT

Q: How did the binding [1] turn out when “SNF1-GBD (SNF1 fused to the GAL4 DNA-binding domain, plasmid pSE1112) (from UniProt P04386 1-147; P06782 1-633)” was run?
A: Its binding is “binds”.

Q: With “VEGF-GBD (Vascular Endothelial Growth Factor fused to the GAL4 DNA-binding domain, in pASSfiI) (from UniProt P04386 1-147; P15692 32-191)” as the substance, how does the binding [2] read?
A: Its binding is “binds”.
